Values from PubChem BioAssay AID588781 (Weizmann Institute, 2011).
The whole screen tested 85 reagents; this is a random part of them. 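Knockdowns of interest may either weaken or strengthen the stiffness dependence of elongation, so both low and high differences matter.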 Further read-outs or replicates are left out here. Not given: the amount of reagent, the time to read-out.

- Purpose: 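Tyrosine kinases that adjust fibroblast polarity according to substrate rigidity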
- System: human foreskin fibroblasts (HFF)
- Reagents: siRNA against human genes
- Conditions: cells plated on fibronectin-coated silicone of high versus low stiffness (range about 2 MPa to 5 kPa)
- Measured: 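Actin-stained fibroblasts on stiff (about 2 MPa) or soft (about 5 kPa) fibronectin-coated silicone were imaged; shape, stress fibres and edges scored, differences given as (stiff − soft)/stiff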
- Reading the numbers: stiff-soft elongation difference: higher = elongation depends more strongly on substrate stiffness

FGFR4 | stiff-soft elongation difference = 0.07
MERTK | stiff-soft elongation difference = 0.2
PDGFRA | stiff-soft elongation difference = 0.24
MET | stiff-soft elongation difference = 0.38
TYK2 | stiff-soft elongation difference = 0.29
FLT4 | stiff-soft elongation difference = 0.05
TIE1 | stiff-soft elongation difference = 0.14
RET | stiff-soft elongation difference = 0.29
ROR2 | stiff-soft elongation difference = 0.12
DDR1 | stiff-soft elongation difference = 0.16
SRC | stiff-soft elongation difference = 0.22
LYN | stiff-soft elongation difference = 0.2
FRK | stiff-soft elongation difference = 0.16
HCK | stiff-soft elongation difference = 0.33
MUSK | stiff-soft elongation difference = 0.21
NTRK1 | stiff-soft elongation difference = 0.35

No new results follow: 2 of the entries above.
ROR2 | stiff-soft elongation difference = 0.12
DDR1 | stiff-soft elongation difference = 0.16
